Experiment [1] addresses c-Myc-tagged Fbxo16 (mouse) (UniProt Q9QZM9). The experiment can be described thus: co-IP; HEK293T transfected with the c-Myc-tagged bait (and Flag-tagged partner where given); whole cell extract in RIPA buffer; IP with anti-c-Myc agarose overnight, four washes; immunoblot; in some panels cells were first transfected with control siRNA or siRNA against Cullin 1, Skp1 or Fbxo proteins.

Protein sequences, listed by entry. Tags and fused reporters are not part of them. Lines headed by an entry give the natural chain unless they say otherwise; changes in a name come on top. Residues count along the entry.
UniProt Q9QZM9: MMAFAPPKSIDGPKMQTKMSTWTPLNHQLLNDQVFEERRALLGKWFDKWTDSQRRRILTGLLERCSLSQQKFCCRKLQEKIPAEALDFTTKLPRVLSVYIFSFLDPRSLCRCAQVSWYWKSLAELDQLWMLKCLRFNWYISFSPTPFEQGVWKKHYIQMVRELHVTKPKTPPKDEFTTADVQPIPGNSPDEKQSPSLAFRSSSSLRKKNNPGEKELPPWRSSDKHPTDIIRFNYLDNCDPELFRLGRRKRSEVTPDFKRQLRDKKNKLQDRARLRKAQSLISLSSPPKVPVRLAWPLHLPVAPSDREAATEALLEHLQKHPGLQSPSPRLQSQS
UniProt P25799, residues 1-431: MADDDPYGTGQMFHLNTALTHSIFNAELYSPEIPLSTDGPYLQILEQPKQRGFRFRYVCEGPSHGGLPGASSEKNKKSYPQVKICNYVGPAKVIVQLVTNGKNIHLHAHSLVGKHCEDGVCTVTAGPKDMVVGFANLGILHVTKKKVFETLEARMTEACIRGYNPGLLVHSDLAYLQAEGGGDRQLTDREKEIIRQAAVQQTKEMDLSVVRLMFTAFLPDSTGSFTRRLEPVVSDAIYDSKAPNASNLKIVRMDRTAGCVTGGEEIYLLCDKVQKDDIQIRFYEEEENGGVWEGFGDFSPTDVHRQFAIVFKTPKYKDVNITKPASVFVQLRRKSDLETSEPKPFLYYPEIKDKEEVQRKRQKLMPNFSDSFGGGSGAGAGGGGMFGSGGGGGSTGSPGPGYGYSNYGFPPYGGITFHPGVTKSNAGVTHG
UniProt Q04207: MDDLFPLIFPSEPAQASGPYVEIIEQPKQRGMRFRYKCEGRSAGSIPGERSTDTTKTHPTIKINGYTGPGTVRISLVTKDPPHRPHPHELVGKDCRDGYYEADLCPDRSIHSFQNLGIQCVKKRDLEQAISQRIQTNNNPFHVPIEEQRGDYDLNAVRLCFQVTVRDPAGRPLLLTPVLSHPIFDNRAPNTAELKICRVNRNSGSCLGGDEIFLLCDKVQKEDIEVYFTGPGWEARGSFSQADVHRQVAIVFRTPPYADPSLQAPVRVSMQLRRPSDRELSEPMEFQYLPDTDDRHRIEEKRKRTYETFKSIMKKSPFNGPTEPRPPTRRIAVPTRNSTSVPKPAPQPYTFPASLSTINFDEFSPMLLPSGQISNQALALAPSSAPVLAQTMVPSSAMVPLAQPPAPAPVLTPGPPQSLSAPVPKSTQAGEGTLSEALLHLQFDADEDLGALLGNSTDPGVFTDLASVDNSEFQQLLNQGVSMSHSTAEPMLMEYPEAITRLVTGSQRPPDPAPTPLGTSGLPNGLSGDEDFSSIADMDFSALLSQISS
UniProt P63208: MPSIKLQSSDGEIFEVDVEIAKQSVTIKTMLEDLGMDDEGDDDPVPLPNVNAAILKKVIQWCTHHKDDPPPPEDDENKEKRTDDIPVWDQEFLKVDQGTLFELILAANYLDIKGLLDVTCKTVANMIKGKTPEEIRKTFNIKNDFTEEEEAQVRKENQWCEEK

Experiment [2] has the same target. The experiment can be described thus: co-IP; HEK293T transfected with c-Myc-Fbxo16; lysis in 50 mM Tris pH 8.0, 0.5% NP-40, 5 mM EDTA, 50 mM NaCl, 50 mM sodium fluoride; IP with anti-c-Myc; immunoblot with anti-Skp1.

No constants are given. Whether binding was seen depends on the method and setting. Binding seen in cells or lysates may run through a third protein. Binding can be weak; no strength is given. For some of these results: Sequences can lack the tags named with a protein.

For “Flag-tagged murine p50 (from UniProt P25799 1-431)”, in experiment [1], the binding entry is listed as “no binding”.
For the molecule “Flag-tagged p65 (from UniProt Q04207 1-549)”, the binding entry in experiment [1] was “binds”.
Consider Skp1 (from UniProt P63208 1-163), for which the binding result in experiment [2] is on record as “binds”.

B1: Flag-tagged PDLIM2 (protein, UniProt Q8R1G6 1-349)
chain: MALTVDVAGPAPWGFRISGGRDFHTPIIVTKVTERGKAEAADLRPGDIIVAINGQSAENMLHAEAQSKIRQSASPLRLQLDRSQTASPGQTNGEGSLEVLATRFQGSLRTHRDSQSSQRSACFSPVSLSPRPCSPFSTPPPTSPVALSKEDMIGCSFQSLTHSPGLAAAHHLTYPGHPTSQQAGHSSPSDSAVRVLLHSPGRPSSPRFSSLDLEEDSEVFKMLQENRQGRAAPRQSSSFRLLQEALEAEERGGTPAFVPSSLSSQASLPTSRALATPPKLHTCEKCSVNISNQAVRIQEGRYRHPGCYTCADCGLNLKMRGHFWVGNELYCEKHARQRYSMPGTLNSRA
Consider B1, for which the binding result in experiment [1] was “binds”.

The values are drawn from PMC12170509.
